The results in this text go back to doi:10.1101/2025.02.10.637577.

Sequences of proteins named here, by UniProt entry; tags and fusion partners are left off. A change or cut given only in a name is not applied to a line headed by its entry. Residues count along the entry.
UniProt Q8NBT3: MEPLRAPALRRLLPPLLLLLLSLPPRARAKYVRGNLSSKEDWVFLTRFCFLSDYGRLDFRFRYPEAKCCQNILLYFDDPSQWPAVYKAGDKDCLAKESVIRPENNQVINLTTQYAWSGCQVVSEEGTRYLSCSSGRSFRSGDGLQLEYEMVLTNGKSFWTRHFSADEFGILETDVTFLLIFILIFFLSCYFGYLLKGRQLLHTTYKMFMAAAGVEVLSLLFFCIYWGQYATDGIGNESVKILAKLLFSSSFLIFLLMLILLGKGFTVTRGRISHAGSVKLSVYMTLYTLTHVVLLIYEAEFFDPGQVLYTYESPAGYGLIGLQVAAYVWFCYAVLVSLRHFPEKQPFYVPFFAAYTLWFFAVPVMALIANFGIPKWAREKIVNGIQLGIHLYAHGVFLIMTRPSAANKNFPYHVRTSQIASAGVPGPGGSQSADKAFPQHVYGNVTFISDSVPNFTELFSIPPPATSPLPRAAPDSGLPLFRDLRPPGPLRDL
UniProt Q8VIM6, residues 23-1809: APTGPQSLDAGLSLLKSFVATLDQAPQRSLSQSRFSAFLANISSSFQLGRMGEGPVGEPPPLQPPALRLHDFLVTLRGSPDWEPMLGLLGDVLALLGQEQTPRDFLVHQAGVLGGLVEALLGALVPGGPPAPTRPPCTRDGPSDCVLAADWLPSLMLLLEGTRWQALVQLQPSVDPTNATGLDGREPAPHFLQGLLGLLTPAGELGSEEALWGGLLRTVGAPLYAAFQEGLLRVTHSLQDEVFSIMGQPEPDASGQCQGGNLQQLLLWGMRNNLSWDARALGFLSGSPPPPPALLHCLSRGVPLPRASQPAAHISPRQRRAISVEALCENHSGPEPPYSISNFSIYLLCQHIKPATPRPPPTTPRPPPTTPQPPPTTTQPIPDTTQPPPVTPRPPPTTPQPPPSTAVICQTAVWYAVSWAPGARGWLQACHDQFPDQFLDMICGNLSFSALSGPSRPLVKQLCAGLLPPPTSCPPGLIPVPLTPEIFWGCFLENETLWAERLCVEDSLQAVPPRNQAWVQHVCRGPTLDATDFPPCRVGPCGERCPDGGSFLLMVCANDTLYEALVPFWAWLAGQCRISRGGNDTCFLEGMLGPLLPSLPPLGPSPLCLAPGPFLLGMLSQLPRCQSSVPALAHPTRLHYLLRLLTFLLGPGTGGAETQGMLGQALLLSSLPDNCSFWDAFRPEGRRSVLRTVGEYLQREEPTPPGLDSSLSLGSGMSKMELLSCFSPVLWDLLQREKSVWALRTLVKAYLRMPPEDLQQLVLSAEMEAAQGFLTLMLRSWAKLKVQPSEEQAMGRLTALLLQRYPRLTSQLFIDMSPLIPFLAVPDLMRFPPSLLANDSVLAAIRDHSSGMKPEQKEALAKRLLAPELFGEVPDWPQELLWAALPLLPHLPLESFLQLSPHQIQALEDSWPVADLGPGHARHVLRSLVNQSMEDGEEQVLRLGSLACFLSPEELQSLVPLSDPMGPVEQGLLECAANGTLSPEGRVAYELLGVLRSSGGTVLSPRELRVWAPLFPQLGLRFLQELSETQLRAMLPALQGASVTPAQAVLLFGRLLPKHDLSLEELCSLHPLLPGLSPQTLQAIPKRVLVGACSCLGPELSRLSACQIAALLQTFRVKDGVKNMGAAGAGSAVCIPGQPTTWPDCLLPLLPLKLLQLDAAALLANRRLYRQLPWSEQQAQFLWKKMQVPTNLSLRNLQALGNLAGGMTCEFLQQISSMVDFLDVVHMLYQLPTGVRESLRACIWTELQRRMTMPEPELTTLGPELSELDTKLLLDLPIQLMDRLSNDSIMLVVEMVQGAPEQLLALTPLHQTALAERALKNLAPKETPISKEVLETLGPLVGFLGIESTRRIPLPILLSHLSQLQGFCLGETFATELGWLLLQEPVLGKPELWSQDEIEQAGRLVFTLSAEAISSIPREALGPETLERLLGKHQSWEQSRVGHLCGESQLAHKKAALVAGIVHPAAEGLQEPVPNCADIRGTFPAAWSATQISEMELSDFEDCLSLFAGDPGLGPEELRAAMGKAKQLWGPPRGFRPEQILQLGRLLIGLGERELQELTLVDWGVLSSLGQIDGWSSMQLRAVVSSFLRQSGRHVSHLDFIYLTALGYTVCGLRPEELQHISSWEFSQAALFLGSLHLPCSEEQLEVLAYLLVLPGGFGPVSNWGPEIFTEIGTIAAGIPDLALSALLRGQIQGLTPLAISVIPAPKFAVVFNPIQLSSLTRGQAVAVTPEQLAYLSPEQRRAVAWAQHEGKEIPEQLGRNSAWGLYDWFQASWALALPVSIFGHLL

Common to all, as to assay: co-IP
The target in test [1] is TMEM145-ΔGOLD-FLAG (not stated (human or mouse cDNA cloned)) (UniProt Q8NBT3).
In test [2] the target is TMEM145-Δ7TM-FLAG (not stated (human or mouse cDNA cloned)) (UniProt Q8NBT3).
Test [3] has as its target TMEM145-FLAG (C-terminal FLAG-tagged TMEM145, wild type) (not stated (human or mouse cDNA cloned)) (UniProt Q8NBT3).
In test [4] the target is T1, TUB-V5 (C-terminal V5-tagged rat tubby) (rat) (UniProt O88808).
T1 sequence: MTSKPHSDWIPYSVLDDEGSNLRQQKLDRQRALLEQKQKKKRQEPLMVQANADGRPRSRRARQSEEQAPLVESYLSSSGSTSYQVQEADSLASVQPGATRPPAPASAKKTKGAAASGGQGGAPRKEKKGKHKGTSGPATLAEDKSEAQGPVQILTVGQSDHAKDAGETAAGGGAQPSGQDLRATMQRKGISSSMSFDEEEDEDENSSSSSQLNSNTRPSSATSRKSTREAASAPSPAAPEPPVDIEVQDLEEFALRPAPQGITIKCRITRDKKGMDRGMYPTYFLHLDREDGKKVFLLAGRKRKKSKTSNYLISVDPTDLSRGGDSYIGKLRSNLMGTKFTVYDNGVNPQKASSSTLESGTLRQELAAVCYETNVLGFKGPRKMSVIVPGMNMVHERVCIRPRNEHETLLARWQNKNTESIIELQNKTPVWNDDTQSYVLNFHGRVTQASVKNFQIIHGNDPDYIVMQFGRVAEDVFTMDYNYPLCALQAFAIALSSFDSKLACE

No constants are given. Whether binding was seen depends on the method and setting. Binding seen in cells or lysates may run through a third protein. Binding can be weak; no strength is given. Where a sequence is shown, tags or fusion partners need not be part of it.

For the molecule “STRC-MYC (C-terminal MYC-tagged mouse stereocilin) (from UniProt Q8VIM6 23-1809)”, the binding entry is recorded as “no binding” in test [1], “binds” in test [2] and “binds” in test [3].
On to “TMEM145-FLAG (C-terminal FLAG-tagged TMEM145, wild type) (from UniProt Q8NBT3)”, for which the binding result in test [4] is on record as “binds”.

B1: TUB-V5 (C-terminal V5-tagged rat tubby) (protein, UniProt O88808 1-505)
chain: MTSKPHSDWIPYSVLDDEGSNLRQQKLDRQRALLEQKQKKKRQEPLMVQANADGRPRSRRARQSEEQAPLVESYLSSSGSTSYQVQEADSLASVQPGATRPPAPASAKKTKGAAASGGQGGAPRKEKKGKHKGTSGPATLAEDKSEAQGPVQILTVGQSDHAKDAGETAAGGGAQPSGQDLRATMQRKGISSSMSFDEEEDEDENSSSSSQLNSNTRPSSATSRKSTREAASAPSPAAPEPPVDIEVQDLEEFALRPAPQGITIKCRITRDKKGMDRGMYPTYFLHLDREDGKKVFLLAGRKRKKSKTSNYLISVDPTDLSRGGDSYIGKLRSNLMGTKFTVYDNGVNPQKASSSTLESGTLRQELAAVCYETNVLGFKGPRKMSVIVPGMNMVHERVCIRPRNEHETLLARWQNKNTESIIELQNKTPVWNDDTQSYVLNFHGRVTQASVKNFQIIHGNDPDYIVMQFGRVAEDVFTMDYNYPLCALQAFAIALSSFDSKLACE
Regarding B1, the binding entry in test [3] is given as “binds”.

B2: TUB-MYC (C-terminal MYC-tagged rat tubby) (protein, UniProt O88808 1-505)
chain: MTSKPHSDWIPYSVLDDEGSNLRQQKLDRQRALLEQKQKKKRQEPLMVQANADGRPRSRRARQSEEQAPLVESYLSSSGSTSYQVQEADSLASVQPGATRPPAPASAKKTKGAAASGGQGGAPRKEKKGKHKGTSGPATLAEDKSEAQGPVQILTVGQSDHAKDAGETAAGGGAQPSGQDLRATMQRKGISSSMSFDEEEDEDENSSSSSQLNSNTRPSSATSRKSTREAASAPSPAAPEPPVDIEVQDLEEFALRPAPQGITIKCRITRDKKGMDRGMYPTYFLHLDREDGKKVFLLAGRKRKKSKTSNYLISVDPTDLSRGGDSYIGKLRSNLMGTKFTVYDNGVNPQKASSSTLESGTLRQELAAVCYETNVLGFKGPRKMSVIVPGMNMVHERVCIRPRNEHETLLARWQNKNTESIIELQNKTPVWNDDTQSYVLNFHGRVTQASVKNFQIIHGNDPDYIVMQFGRVAEDVFTMDYNYPLCALQAFAIALSSFDSKLACE
For B2, the binding entry was “binds” in test [1], “no binding” in test [2] and “binds” in test [3].
